From the supplement of paper PMC6411743
± gives the standard deviation of the averaged measurements. The entries are a selection whose mix differs from that of the whole data set. Most entries show no effect beyond the scatter of the controls.

Sequences of proteins named here, by UniProt entry; tags and fusion partners are left off. A change or cut given only in a name is not applied to a line headed by its entry.
UniProt P27361, whole entry: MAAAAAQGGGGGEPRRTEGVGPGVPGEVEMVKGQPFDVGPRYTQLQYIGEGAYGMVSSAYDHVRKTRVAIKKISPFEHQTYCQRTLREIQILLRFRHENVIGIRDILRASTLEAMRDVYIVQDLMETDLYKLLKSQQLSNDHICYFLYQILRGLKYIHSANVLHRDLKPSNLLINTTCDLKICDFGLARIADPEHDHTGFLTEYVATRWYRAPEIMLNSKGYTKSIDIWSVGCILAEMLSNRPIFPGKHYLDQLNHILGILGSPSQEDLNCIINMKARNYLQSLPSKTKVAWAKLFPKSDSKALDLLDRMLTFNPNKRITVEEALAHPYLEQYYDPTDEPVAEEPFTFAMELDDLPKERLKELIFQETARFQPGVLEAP
UniProt P18433: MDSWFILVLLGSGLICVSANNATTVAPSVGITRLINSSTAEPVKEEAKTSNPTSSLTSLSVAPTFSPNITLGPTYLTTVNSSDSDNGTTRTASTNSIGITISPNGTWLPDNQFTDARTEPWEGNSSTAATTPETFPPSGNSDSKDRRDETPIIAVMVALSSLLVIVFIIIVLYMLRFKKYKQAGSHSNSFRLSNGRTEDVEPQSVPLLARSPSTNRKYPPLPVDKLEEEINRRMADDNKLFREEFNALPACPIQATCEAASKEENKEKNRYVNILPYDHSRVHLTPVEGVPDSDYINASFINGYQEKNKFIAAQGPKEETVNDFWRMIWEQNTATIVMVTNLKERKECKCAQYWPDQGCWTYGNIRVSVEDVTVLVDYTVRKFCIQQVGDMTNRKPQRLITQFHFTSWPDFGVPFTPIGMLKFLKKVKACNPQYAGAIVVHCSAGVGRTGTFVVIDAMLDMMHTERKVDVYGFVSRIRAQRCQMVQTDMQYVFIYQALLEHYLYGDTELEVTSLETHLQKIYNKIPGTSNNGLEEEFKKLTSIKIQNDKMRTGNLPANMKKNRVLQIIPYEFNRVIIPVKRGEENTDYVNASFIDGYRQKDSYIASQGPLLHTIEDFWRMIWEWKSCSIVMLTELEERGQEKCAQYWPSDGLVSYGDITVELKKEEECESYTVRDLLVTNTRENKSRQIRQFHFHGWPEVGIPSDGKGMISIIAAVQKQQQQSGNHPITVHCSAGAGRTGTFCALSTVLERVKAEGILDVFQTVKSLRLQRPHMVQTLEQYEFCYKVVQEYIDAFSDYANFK
UniProt P17980, whole entry: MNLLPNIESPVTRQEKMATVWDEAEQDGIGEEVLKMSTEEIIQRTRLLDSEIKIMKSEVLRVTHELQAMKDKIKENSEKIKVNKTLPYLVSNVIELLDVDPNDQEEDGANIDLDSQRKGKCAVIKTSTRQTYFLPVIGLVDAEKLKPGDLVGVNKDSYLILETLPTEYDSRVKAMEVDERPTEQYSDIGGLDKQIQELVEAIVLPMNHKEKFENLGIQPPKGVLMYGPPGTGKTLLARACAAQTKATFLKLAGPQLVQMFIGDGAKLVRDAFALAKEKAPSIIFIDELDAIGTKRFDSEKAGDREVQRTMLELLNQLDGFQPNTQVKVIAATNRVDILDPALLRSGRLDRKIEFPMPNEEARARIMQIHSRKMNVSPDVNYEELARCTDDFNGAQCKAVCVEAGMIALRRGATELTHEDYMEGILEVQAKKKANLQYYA
UniProt P30203: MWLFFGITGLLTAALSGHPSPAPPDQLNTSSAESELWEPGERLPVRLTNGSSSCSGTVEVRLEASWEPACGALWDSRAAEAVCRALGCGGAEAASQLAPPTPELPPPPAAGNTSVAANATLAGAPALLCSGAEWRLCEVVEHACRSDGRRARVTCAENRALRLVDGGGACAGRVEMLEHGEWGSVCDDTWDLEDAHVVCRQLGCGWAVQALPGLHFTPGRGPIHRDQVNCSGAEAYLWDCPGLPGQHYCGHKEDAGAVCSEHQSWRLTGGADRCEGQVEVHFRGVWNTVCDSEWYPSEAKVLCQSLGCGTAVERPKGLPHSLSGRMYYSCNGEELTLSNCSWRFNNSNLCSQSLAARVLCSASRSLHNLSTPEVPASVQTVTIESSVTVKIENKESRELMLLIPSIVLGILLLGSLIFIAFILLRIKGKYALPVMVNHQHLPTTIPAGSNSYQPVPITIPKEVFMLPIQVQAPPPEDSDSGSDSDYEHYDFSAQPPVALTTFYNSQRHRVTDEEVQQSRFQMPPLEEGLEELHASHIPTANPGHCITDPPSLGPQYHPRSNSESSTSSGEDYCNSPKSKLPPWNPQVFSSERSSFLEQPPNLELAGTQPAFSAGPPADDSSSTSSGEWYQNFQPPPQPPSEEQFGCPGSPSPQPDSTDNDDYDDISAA
UniProt P28070, whole entry: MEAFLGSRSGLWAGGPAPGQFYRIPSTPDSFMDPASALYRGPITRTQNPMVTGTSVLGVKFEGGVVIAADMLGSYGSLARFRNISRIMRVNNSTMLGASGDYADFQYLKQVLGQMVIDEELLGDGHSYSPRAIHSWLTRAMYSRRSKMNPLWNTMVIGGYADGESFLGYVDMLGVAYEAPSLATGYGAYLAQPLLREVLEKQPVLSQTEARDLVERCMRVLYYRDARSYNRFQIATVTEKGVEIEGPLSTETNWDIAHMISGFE
UniProt P33316: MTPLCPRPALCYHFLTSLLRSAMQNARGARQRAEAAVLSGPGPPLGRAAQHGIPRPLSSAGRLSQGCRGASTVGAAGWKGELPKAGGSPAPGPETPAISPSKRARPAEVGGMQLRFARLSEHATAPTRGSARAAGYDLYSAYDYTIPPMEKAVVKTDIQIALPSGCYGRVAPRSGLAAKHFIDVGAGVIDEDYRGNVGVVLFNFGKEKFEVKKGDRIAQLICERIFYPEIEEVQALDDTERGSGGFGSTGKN
UniProt P36957: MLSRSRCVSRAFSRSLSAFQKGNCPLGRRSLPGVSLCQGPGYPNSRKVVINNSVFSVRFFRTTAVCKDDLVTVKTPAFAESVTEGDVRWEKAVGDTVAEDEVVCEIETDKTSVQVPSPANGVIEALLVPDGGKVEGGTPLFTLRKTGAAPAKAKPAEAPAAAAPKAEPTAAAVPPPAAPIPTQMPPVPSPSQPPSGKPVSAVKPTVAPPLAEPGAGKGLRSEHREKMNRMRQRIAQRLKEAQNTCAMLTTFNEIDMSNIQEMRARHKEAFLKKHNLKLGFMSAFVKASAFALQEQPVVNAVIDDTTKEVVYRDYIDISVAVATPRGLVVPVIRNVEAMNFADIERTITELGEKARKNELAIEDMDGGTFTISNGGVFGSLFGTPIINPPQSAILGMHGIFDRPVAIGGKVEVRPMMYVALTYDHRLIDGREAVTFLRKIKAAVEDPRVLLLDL
UniProt P32321: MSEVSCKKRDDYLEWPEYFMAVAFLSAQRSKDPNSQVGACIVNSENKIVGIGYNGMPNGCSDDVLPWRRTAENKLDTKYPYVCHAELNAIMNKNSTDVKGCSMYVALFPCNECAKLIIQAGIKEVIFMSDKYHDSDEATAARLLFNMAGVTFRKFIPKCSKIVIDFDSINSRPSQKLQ
UniProt P28066: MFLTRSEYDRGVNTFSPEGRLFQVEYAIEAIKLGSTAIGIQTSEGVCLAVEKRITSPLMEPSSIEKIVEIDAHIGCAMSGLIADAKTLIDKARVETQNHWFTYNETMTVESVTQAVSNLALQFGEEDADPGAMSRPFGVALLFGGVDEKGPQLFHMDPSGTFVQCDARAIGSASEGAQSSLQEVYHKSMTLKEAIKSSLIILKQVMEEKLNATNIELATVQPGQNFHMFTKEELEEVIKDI
UniProt P21266: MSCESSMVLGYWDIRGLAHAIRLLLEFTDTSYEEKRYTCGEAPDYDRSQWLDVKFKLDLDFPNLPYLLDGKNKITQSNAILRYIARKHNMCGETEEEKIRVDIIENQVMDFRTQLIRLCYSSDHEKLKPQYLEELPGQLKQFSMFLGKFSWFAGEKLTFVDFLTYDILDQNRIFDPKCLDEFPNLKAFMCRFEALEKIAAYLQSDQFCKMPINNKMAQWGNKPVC
UniProt P17028: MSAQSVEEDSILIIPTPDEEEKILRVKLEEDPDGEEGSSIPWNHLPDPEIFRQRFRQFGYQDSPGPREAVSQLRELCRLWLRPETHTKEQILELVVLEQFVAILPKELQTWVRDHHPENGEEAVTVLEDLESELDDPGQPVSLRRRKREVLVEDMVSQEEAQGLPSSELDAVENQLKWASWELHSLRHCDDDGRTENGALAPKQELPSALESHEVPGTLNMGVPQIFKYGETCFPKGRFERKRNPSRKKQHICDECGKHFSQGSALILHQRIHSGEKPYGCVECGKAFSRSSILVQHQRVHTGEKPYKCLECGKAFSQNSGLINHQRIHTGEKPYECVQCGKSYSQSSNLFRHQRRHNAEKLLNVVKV
UniProt P20618: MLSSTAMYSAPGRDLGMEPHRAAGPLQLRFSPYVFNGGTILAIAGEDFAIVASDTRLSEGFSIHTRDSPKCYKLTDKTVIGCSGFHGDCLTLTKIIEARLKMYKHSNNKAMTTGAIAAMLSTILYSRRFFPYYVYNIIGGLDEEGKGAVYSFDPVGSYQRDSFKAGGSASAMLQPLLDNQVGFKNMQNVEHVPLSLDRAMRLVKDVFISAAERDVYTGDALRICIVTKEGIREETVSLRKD
UniProt P25490, whole entry: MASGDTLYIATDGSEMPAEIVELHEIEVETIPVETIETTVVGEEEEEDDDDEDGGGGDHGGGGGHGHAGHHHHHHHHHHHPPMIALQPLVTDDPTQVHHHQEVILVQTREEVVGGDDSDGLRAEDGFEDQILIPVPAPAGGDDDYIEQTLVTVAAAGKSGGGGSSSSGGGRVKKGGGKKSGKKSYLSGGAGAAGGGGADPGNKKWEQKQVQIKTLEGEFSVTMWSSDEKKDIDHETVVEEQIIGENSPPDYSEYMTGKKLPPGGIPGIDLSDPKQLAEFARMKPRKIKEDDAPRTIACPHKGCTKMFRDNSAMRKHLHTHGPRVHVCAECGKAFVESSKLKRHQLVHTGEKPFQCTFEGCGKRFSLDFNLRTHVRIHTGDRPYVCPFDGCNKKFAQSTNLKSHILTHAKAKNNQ
UniProt P16989, whole entry: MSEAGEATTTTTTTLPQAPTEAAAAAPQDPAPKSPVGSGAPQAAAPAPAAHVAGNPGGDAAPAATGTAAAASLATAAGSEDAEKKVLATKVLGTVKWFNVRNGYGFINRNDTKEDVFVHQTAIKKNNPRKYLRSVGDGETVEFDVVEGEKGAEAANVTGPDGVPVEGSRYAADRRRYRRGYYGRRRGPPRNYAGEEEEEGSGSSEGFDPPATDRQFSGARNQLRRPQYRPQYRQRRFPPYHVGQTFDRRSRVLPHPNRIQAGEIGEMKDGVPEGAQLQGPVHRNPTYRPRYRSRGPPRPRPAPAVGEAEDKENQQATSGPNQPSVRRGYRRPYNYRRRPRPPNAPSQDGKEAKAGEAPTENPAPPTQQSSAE
UniProt P20645: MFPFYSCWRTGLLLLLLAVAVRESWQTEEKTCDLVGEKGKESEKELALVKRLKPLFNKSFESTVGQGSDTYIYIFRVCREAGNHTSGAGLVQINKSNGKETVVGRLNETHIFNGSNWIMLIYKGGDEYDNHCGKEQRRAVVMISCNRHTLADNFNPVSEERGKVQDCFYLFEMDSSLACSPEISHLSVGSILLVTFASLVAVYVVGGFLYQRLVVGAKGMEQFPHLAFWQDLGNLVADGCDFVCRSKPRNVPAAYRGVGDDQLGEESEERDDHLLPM
UniProt P27144: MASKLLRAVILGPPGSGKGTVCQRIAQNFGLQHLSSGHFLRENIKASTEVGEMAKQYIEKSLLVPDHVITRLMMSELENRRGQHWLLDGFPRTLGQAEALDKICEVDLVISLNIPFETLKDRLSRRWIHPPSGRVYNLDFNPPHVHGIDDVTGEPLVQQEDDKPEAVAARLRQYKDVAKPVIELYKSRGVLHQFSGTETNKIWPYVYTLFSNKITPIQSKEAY
UniProt P33993, whole entry: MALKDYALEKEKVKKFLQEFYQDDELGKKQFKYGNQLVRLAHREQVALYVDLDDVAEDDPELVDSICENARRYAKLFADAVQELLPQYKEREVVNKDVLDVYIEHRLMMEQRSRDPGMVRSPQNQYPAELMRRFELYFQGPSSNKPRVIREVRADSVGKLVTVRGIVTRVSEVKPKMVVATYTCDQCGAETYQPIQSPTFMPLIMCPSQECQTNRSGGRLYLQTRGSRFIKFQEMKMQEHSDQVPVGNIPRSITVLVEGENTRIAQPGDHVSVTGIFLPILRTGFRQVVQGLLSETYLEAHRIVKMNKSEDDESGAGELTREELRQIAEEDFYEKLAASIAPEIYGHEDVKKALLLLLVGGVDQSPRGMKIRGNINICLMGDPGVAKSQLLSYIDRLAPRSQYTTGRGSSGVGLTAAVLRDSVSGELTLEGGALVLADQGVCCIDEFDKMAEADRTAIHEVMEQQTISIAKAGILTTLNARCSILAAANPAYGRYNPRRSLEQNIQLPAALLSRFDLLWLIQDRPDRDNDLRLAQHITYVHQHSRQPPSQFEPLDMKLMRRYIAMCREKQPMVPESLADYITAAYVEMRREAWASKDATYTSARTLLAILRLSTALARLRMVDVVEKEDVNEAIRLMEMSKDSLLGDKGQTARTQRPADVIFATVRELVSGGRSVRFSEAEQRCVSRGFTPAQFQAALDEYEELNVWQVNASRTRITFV

Compound: Nc1ncnc2c1ncn2[C@@H]1O[C@H](COP(=O)(O)OP(=O)(O)NP(=O)(O)O)[C@@H](O)[C@H]1O [adenylyl imidodiphosphate]
Experiment: NP40-soluble protein abundance relative to vehicle (solubility fold change) (ratio); higher = more soluble protein in presence of AMP-PNP
Outline: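 Crude Jurkat lysate, prepared by Dounce homogenisation, was exposed to eight concentrations from 0.1 to 10 mM for 10 min at room temperature and then 3 min at 37 °C. Solubilisation used 0.8% NP40 with benzonase for 60 min at 4 °C, followed by ultracentrifugation and TMT labelling of the supernatant for LC-MS/MS. After vsn normalisation of intensities, each value is the fold change against the detergent-processed vehicle within each replicate, across three independent experiments.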

| Target | NP40-soluble protein abundance (concentration: 0.1mM) | NP40-soluble protein abundance (concentration: 0.5mM) |
| --- | --- | --- |
| GLRX (UniProt P35754) | 1.03 ± 0.011 | 1.02 ± 0.038 |
| UniProt P18583 and related entries | 0.996 ± 0.065 | 1 ± 0.053 |
| ITGA2 (UniProt P17301) | 0.9923 ± 0.003 | 1.02 ± 0.015 |
| RAB4A (UniProt P20338) | 1.023 ± 0.0026 | 1.02 ± 0.027 |
| UniProt P27361 | 1.02 ± 0.041 | 1.04 ± 0.075 |
| UniProt P38159 and related entries | 1.03 ± 0.059 | 1.1 ± 0.089 |
| UniProt P18433 and related entries | 1.03 ± 0.014 | 1.02 ± 0.019 |
| UniProt P17980 and related entries | 0.995 ± 0.027 | 0.947 ± 0.046 |
| UniProt P28799 and related entries | 0.9777 ± 0.0086 | 1.02 ± 0.06 |
| UniProt P25398 | 0.989 ± 0.013 | 0.966 ± 0.014 |
| MCM4 (UniProt P33991) | 1 ± 0.028 | 0.982 ± 0.011 |
| RDX (UniProt P35241) | 0.986 ± 0.063 | 1.04 ± 0.086 |
| ATP6V1A (UniProt P38606) | 1.018 ± 0.0053 | 1 ± 0.047 |
| PTPN1 (UniProt P18031) | 0.978 ± 0.029 | 0.987 ± 0.029 |
| UniProt P30622 and related entries | 0.982 ± 0.036 | 0.979 ± 0.045 |
| UniProt P18206 and related entries | 0.963 ± 0.017 | 0.977 ± 0.041 |
| MCM5 (UniProt P33992) | 0.98 ± 0.033 | 0.962 ± 0.027 |
| TAGLN2 (UniProt P37802) | 0.972 ± 0.082 | 0.953 ± 0.039 |
| UniProt P30203 and related entries | 1.02 ± 0.018 | 1.02 ± 0.013 |
| UniProt P35626 | 1.03 ± 0.026 | 1.006 ± 0.0083 |

| Target | NP40-soluble protein abundance (concentration: 0.1mM) | NP40-soluble protein abundance (concentration: 0.5mM) |
| --- | --- | --- |
| UniProt P17542 and related entries | 1.01 ± 0.015 | 0.986 ± 0.012 |
| LMNB1 (UniProt P20700) | 0.962 ± 0.019 | 0.959 ± 0.061 |
| PSMB4 (UniProt P28070) | 0.989 ± 0.018 | 1.04 ± 0.021 |
| PGM1 (UniProt P36871) | 1.01 ± 0.035 | 0.998 ± 0.072 |
| UniProt P33316 and related entries | 0.986 ± 0.028 | 0.999 ± 0.021 |
| UniProt P32519 and related entries | 0.955 ± 0.011 | 0.975 ± 0.016 |
| DLST (UniProt P36957) | 1.08 ± 0.1 | 1.06 ± 0.081 |
| PFKL (UniProt P17858) | 1.06 ± 0.032 | 1.01 ± 0.088 |
| UniProt P26368 and related entries | 1.11 ± 0.11 | 0.987 ± 0.091 |
| UniProt P32321 and related entries | 0.98 ± 0.039 | 0.98 ± 0.05 |
| VDAC1 (UniProt P21796) | 0.984 ± 0.011 | 1.02 ± 0.035 |
| UniProt P20701 and related entries | 1.01 ± 0.048 | 0.998 ± 0.036 |
| UniProt P28066 and related entries | 0.997 ± 0.022 | 0.983 ± 0.011 |
| GSTM3 (UniProt P21266) | 1.02 ± 0.042 | 1.06 ± 0.071 |
| UniProt P25705 and related entries | 1.01 ± 0.011 | 1.02 ± 0.015 |
| ZNF24 (UniProt P17028) | 1.01 ± 0.032 | 0.979 ± 0.018 |
| IGFBP2 (UniProt P18065) | 0.995 ± 0.03 | 1 ± 0.013 |
| CPOX (UniProt P36551) | 1.03 ± 0.025 | 1 ± 0.065 |
| BLVRB (UniProt P30043) | 1.01 ± 0.031 | 1.01 ± 0.036 |
| RFC2 (UniProt P35250) | 1.04 ± 0.067 | 1.05 ± 0.024 |

Reformatted with bars between the fields: entries from further up.
Target | NP40-soluble protein abundance (concentration: 0.1mM) | NP40-soluble protein abundance (concentration: 0.5mM)
UniProt P18433 and related entries | 1.03 ± 0.014 | 1.02 ± 0.019
UniProt P28799 and related entries | 0.9777 ± 0.0086 | 1.02 ± 0.06
TAGLN2 (UniProt P37802) | 0.972 ± 0.082 | 0.953 ± 0.039
UniProt P32321 and related entries | 0.98 ± 0.039 | 0.98 ± 0.05
UniProt P25705 and related entries | 1.01 ± 0.011 | 1.02 ± 0.015

(further entries)

| Target | NP40-soluble protein abundance (concentration: 0.1mM) | NP40-soluble protein abundance (concentration: 0.5mM) |
| --- | --- | --- |
| UniProt P23634 and related entries | 1 ± 0.041 | 0.986 ± 0.05 |
| JAK1 (UniProt P23458) | 1.13 ± 0.059 | 1.13 ± 0.043 |
| PSMB1 (UniProt P20618) | 1.01 ± 0.03 | 0.993 ± 0.012 |
| CAPG (UniProt P40121) | 0.981 ± 0.019 | 1.01 ± 0.039 |
| CORO1A (UniProt P31146) | 1.06 ± 0.057 | 1.05 ± 0.044 |
| YY1 (UniProt P25490) | 1.009 ± 0.0032 | 1.05 ± 0.064 |
| UniProt P18846 and related entries | 0.935 ± 0.032 | 0.965 ± 0.03 |
| UniProt P20020 and related entries | 1.04 ± 0.043 | 0.985 ± 0.026 |
| FBL (UniProt P22087) | 0.994 ± 0.039 | 1.01 ± 0.068 |
| PRKAR2B (UniProt P31323) | 1.03 ± 0.054 | 1.03 ± 0.028 |
| RPL7 (UniProt P18124) | 0.963 ± 0.06 | 0.958 ± 0.059 |
| HNRNPA2B1 (UniProt P22626) | 1.07 ± 0.14 | 1.03 ± 0.1 |
| UniProt P16989 and related entries | 0.985 ± 0.045 | 0.965 ± 0.022 |
| M6PR (UniProt P20645) | 0.961 ± 0.066 | 1.03 ± 0.084 |
| AK4 (UniProt P27144) | 0.995 ± 0.045 | 1.03 ± 0.1 |
| TFE3 (UniProt P19532) | 0.991 ± 0.025 | 0.97413 ± 0.00073 |
| UniProt P24539 and related entries | 1.02 ± 0.072 | 1.01 ± 0.067 |
| UniProt P17812 | 0.971 ± 0.017 | 0.962 ± 0.046 |
| MCM7 (UniProt P33993) | 1.02 ± 0.012 | 0.976 ± 0.037 |
| AGL (UniProt P35573) | 1.07 ± 0.053 | 1.01 ± 0.086 |
